Taken from: PubChem BioAssay AID686943 (Drosophila RNAi Screening Center, 2013)

Test: 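Search across the genome for regulators of signalling from receptor tyrosine kinase to ERK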 (primary screen)
Cell system: Drosophila S2R+ haemocyte-like cells expressing YFP-tagged ERK (Rolled)
Reagents: long dsRNA against Drosophila genes
Treatment: insulin stimulation versus unstimulated cells; dose and duration not given
Measured: 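Per-plate z-scores of phospho-ERK immunostaining normalised to YFP-tagged ERK, measured with and without insulin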
Direction: replicate 1, z-score of dpERK with insulin: higher = more active ERK per ERK-YFP after insulin
The screen tested about 23,000 reagents; this is an unselected part of those that have a named target and a result. 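Extra replicates exist only for a retested subset of genes; insulin dose and duration not given; both raised and lowered dpERK matter.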 Names joined by + are all predicted targets of the reagent. Not all columns of the deposit are shown. Not stated in the record: the amount of reagent, the time to read-out.

Against CG17752 [SID104195054] the deposit lists replicate 1, z-score of dpERK with insulin 0.69.
CG9691 [SID104198233] showed replicate 1, z-score of dpERK with insulin 0.08.
Knock-down of prel [SID104187063] gave: replicate 1, z-score of dpERK with insulin -0.34.
Depletion of TpnC41C [SID104184708] came out at: replicate 1, z-score of dpERK with insulin -0.54.
With knock-down of mus201 + Chrac-14 [SID104183360] the results were replicate 1, z-score of dpERK with insulin -0.11.
After knock-down of mus201 + Chrac-14 [SID104183367], the record shows replicate 1, z-score of dpERK with insulin 0.18.
Against SmydA-6 [SID104187133], the values are replicate 1, z-score of dpERK with insulin 0.4.
With knock-down of Gr93b [SID104201639] the results were replicate 1, z-score of dpERK with insulin 0.05.
Against alpha4GT1 [SID104180280], the values are replicate 1, z-score of dpERK with insulin -0.15.
Against CG7299 [SID104182835] the deposit lists replicate 1, z-score of dpERK with insulin 0.09.
With knock-down of CG2100 [SID104192095], the screen gave replicate 1, z-score of dpERK with insulin -0.4.
Depletion of strat [SID104182861] gave: replicate 1, z-score of dpERK with insulin 0.16.
After knock-down of apn [SID104194916], the screen gave replicate 1, z-score of dpERK with insulin -0.13.
Silencing of CG12780 [SID104185961] gave: replicate 1, z-score of dpERK with insulin -0.27.
After knock-down of thr [SID104187498], the record shows replicate 1, z-score of dpERK with insulin -1.39.

Reformatted: entries from further up.
Gr93b [SID104201639]
- replicate 1, z-score of dpERK with insulin: 0.05

alpha4GT1 [SID104180280]
- replicate 1, z-score of dpERK with insulin: -0.15

CG7299 [SID104182835]
- replicate 1, z-score of dpERK with insulin: 0.09

The list goes on:
With knock-down of CG4393 [SID104195365] the results were replicate 1, z-score of dpERK with insulin -0.27.
For CG6701 [SID104186799], the values are replicate 1, z-score of dpERK with insulin -5.23.
Silencing of Obp50d [SID104185275] resulted in: replicate 1, z-score of dpERK with insulin 0.34.
CG5644 [SID104190323] gave replicate 1, z-score of dpERK with insulin 0.43.
Against ems [SID104196733], the values are replicate 1, z-score of dpERK with insulin 0.95.
With knock-down of Mdh2 [SID104196153], the screen gave replicate 1, z-score of dpERK with insulin -0.23.
With knock-down of GstE4 [SID104186466], the screen gave replicate 1, z-score of dpERK with insulin -0.41.
CR14117 [SID104189913] gave replicate 1, z-score of dpERK with insulin 0.4.
Knock-down of CG10311 [SID104194020] gave: replicate 1, z-score of dpERK with insulin -0.35.
After knock-down of mars [SID104186448], the record shows replicate 1, z-score of dpERK with insulin -0.75.
Knock-down of CG10147 [SID104189498] gave: replicate 1, z-score of dpERK with insulin 0.54.
After knock-down of CG14105 [SID104189899] the results were replicate 1, z-score of dpERK with insulin 0.38.
Against Hip1 [SID104189604] the deposit lists replicate 1, z-score of dpERK with insulin -0.38.
For CG9330 [SID104190858] the deposit lists replicate 1, z-score of dpERK with insulin 0.34.
Against DnaJ-H [SID104183065], the values are replicate 1, z-score of dpERK with insulin 0.27.
Hsl [SID104185820] showed replicate 1, z-score of dpERK with insulin -0.39.
Against fs(1)Yb [SID104198569], the entry reads replicate 1, z-score of dpERK with insulin 0.45.
Depletion of Acox57D-p [SID104184352] gave: replicate 1, z-score of dpERK with insulin 0.29.
Depletion of CG17560 [SID104195034] gave: replicate 1, z-score of dpERK with insulin 0.35.
For Tbcd [SID104180065], the values are replicate 1, z-score of dpERK with insulin 0.31.
Orc5 [SID104183182] scored replicate 1, z-score of dpERK with insulin 0.34.
Against CG10466 [SID104181852], the entry reads replicate 1, z-score of dpERK with insulin 0.57.
For stwl [SID104191192], the values are replicate 1, z-score of dpERK with insulin 0.25.
With knock-down of Gcna [SID104198345], the record shows replicate 1, z-score of dpERK with insulin 0.46.
Drep4 [SID104183200] gave replicate 1, z-score of dpERK with insulin -0.92.
